Reference: US20240376454A1
Results are given in words; binding and its absence hold for the method and conditions named. Some binding calls cover weakened binding; strength is not graded here.

Columns and labels:
[1] = target: Pfu Cascade (Pyrococcus furiosus); assay: agarose EMSA with Cy3-Cas3, Cy5-Cascade and FAM-dsDNA
[2] = target: Pfu Cascade (Pyrococcus furiosus); assay: size-exclusion chromatography without target DNA
[3] = target: Pfu Cascade (Pyrococcus furiosus); assay: agarose EMSA with labeled partners; SEC
[4] = target: Pfu Cas8a (Pyrococcus furiosus); assay: cryo-EM of the Pfu Cas3-Cas8a sub-complex
[5] = target: Pfu Cas8a (Pyrococcus furiosus); assay: SEC and SDS-PAGE of reconstituted complexes
[6] = target: Pfu Cascade (Pyrococcus furiosus); assay: cryo-EM of the Pfu Cascade-Cas3 complex
[7] = target: T1, Pfu Cas3 HEL (Pyrococcus furiosus); assay: SEC and SDS-PAGE of mixed subunits
T1 sequence: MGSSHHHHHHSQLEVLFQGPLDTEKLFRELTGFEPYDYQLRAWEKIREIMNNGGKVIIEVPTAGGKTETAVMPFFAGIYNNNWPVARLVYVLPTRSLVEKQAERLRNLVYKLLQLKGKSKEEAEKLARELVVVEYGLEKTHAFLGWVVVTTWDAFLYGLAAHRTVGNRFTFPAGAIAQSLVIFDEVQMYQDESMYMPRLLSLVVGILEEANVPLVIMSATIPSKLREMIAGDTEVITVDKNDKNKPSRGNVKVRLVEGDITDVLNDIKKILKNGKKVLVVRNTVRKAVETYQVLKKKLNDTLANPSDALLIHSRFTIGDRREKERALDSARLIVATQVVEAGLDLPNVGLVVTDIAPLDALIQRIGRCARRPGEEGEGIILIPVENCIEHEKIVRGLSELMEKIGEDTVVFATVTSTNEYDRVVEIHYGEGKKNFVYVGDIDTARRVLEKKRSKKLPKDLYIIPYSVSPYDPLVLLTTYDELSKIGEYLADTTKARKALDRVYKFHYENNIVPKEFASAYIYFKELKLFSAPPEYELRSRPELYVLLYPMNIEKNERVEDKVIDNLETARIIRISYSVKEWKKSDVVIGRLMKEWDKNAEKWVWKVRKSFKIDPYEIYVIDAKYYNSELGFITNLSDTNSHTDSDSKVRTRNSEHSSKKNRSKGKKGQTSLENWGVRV

Measured: binding

B1: Pfu Cas3 (HD+HEL) (enzyme)
chain 1: MGSSHHHHHHSQLEVLFQGPLGSSCKAFQGQTLREHIEAMLAAWEIVKNKYIPSIIRVMKTVGVKFTEEDADKFMKTLIILHDVGKCSEVYQKHLSNNEPLRGFRHELVSAYYAYNILKDMFKDETIAFIGALVVMMHHEPILMGQIRSLDKEELTPEVVLDKLRTFNGVMEGTESFIKSMIKEKLGVIPKVPSPTQEDVLREVIRLSVLARHRPDSGKLRMVVGALLIPLVLCDYKGAKEREGESPKFAEVLRVEMMK
chain 2: T1 sequence
not listed: [7]
binds: all other assays above

B2: Pfu Cas3 HD (enzyme)
chain: B1 chain 1
binds: [7]
